Data from article PMC8631636.
These are yes or no findings as the source states them, for the method shown. In cells and extracts the contact can be indirect. Some entries that bind do so weakly or less than the wild type.

Amino acid sequences for entries named in this document (tags omitted).
UniProt Q8BLR2: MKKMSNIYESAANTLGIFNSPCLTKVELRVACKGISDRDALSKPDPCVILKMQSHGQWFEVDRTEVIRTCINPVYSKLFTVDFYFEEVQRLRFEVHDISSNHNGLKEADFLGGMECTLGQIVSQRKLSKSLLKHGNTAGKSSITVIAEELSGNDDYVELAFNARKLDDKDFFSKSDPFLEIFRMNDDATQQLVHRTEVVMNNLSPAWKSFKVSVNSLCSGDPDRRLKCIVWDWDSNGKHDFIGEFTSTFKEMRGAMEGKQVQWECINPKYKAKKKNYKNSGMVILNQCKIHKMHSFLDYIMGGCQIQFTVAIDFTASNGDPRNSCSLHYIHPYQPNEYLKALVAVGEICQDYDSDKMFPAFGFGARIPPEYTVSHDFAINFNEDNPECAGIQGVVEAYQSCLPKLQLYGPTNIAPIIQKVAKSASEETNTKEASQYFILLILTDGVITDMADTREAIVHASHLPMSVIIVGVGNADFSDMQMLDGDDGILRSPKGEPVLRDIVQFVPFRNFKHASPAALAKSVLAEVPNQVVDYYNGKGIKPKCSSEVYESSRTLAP
UniProt P14873: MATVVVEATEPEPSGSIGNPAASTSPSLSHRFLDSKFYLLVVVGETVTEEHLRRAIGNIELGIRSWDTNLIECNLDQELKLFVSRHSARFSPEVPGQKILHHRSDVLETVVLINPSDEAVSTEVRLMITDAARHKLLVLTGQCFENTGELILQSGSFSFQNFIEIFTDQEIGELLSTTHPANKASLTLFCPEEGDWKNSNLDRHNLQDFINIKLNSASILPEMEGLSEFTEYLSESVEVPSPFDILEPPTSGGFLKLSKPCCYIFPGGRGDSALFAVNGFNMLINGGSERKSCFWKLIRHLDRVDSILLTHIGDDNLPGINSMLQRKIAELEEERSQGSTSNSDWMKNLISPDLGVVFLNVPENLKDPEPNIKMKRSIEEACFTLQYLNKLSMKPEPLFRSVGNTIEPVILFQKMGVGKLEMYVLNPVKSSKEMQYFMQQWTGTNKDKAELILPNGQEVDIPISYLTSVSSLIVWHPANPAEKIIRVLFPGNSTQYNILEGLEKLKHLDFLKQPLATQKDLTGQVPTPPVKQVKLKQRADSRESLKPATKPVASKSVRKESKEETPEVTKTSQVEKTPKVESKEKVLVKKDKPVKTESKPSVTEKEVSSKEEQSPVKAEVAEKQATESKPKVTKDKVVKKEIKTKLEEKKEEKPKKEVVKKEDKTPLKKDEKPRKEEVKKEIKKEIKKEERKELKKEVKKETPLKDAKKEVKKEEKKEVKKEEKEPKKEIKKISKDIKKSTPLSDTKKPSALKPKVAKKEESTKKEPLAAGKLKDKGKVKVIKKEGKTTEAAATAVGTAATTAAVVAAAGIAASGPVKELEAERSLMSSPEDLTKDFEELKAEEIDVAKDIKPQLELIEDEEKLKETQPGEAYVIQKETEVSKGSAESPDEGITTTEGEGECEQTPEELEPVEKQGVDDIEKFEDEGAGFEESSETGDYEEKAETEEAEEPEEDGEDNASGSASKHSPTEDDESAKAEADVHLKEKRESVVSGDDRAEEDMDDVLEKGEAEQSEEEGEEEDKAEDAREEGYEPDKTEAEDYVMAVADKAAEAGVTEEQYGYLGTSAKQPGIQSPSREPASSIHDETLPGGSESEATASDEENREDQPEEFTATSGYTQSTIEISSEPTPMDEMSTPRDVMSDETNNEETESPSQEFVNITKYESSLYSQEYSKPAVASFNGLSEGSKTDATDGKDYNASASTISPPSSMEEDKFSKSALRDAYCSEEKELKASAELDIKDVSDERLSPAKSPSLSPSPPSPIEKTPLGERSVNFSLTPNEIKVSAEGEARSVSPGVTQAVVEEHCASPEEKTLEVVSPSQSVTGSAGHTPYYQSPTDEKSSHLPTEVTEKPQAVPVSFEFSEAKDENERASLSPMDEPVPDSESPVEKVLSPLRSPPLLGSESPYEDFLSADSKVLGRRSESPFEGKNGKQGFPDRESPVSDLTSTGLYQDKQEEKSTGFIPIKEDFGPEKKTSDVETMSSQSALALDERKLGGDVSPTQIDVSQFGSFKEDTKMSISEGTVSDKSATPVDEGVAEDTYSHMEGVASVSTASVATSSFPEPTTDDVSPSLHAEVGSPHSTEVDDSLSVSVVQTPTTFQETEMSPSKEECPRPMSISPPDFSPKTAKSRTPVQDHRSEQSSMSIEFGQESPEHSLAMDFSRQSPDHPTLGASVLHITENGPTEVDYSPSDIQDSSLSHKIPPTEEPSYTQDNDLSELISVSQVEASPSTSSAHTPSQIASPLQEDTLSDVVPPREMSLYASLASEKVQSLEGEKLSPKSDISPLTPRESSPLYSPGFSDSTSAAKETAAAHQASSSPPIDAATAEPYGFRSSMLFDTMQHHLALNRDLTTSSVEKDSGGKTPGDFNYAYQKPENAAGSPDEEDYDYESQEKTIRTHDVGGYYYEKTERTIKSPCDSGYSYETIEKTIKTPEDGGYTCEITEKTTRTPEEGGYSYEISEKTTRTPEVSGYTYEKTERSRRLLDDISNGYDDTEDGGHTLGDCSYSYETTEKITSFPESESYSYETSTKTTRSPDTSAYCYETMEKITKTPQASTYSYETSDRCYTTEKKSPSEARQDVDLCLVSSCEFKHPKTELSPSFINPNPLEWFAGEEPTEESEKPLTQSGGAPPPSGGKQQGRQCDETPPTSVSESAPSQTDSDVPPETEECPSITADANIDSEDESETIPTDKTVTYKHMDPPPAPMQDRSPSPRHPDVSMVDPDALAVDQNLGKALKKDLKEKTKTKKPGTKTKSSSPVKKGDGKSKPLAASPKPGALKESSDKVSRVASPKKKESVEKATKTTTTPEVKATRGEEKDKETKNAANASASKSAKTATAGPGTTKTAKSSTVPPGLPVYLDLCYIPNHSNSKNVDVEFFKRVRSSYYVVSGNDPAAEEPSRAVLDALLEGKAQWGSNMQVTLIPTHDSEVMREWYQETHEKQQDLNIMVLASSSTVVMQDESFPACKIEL
UniProt Q9JIS5: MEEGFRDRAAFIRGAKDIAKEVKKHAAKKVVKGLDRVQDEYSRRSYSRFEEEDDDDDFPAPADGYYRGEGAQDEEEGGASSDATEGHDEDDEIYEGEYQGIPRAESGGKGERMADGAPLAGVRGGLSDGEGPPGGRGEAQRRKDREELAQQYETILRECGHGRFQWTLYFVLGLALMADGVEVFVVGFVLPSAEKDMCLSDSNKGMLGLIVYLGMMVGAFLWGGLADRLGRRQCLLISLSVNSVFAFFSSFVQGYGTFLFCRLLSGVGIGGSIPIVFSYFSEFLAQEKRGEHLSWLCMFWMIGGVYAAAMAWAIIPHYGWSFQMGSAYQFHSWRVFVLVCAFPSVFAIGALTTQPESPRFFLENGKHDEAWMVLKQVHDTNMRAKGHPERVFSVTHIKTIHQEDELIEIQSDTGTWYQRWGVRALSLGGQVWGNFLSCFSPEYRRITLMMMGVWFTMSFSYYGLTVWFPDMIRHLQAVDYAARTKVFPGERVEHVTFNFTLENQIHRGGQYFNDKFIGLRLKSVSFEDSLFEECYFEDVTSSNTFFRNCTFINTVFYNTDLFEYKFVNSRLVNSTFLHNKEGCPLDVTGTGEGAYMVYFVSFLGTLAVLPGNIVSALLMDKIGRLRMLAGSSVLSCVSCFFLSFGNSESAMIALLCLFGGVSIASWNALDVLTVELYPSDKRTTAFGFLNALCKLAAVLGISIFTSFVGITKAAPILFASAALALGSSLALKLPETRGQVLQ
UniProt P61264: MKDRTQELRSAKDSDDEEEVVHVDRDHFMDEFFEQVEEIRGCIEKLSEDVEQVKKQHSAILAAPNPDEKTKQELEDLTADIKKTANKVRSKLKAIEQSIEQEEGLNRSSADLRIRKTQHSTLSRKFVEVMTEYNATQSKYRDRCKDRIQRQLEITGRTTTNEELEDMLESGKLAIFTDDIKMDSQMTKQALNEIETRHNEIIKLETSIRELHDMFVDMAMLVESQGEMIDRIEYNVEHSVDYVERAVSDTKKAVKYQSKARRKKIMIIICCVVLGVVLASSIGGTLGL

Biological target: GST-Cpne4 (UniProt Q8BLR2)
Assay: pull-down; GST, GST-Cpne4-vWA or GST-Cpne4 on glutathione magnetic beads incubated overnight at 4°C with cleared mouse retina lysate; eluates checked with specific antibodies by Western blotting; only the target purified

binding, binds:
Map1b (from UniProt P14873 1-2464), SV2 (from UniProt Q9JIS5 1-742), Syntaxin-1 (from UniProt P61264 1-288)
